Results are given in words; binding and its absence hold for the method and conditions named. Binding seen in cells or lysates may run through a third protein. A yes stands for co-enrichment or nearness to the bait. Other partners may have been found.
B1: RSF1 (protein, UniProt Q96T23 1-1441)
chain: MATAAAAAAVMAPPGCPGSCPNFAVVCSFLERYGPLLDLPELPFPELERVLQAPPPDVGNGEVPKELVELHLKLMRKIGKSVTADRWEKYLIKICQEFNSTWAWEMEKKGYLEMSVECKLALLKYLCECQFDDNLKFKNIINEEDADTMRLQPIGRDKDGLMYWYQLDQDHNVRMYIEEQDDQDGSSWKCIVRNRNELAETLALLKAQIDPVLLKNSSQQDNSSRESPSLEDEETKKEEETPKQEEQKESEKMKSEEQPMDLENRSTANVLEETTVKKEKEDEKELVKLPVIVKLEKPLPENEEKKIIKEESDSFKENVKPIKVEVKECRADPKDTKSSMEKPVAQEPERIEFGGNIKSSHEITEKSTEETEKLKNDQQAKIPLKKREIKLSDDFDSPVKGPLCKSVTPTKEFLKDEIKQEEETCKRISTITALGHEGKQLVNGEVSDERVAPNFKTEPIETKFYETKEESYSPSKDRNIITEGNGTESLNSVITSMKTGELEKETAPLRKDADSSISVLEIHSQKAQIEEPDPPEMETSLDSSEMAKDLSSKTALSSTESCTMKGEEKSPKTKKDKRPPILECLEKLEKSKKTFLDKDAQRLSPIPEEVPKSTLESEKPGSPEAAETSPPSNIIDHCEKLASEKEVVECQSTSTVGGQSVKKVDLETLKEDSEFTKVEMDNLDNAQTSGIEEPSETKGSMQKSKFKYKLVPEEETTASENTEITSERQKEGIKLTIRISSRKKKPDSPPKVLEPENKQEKTEKEEEKTNVGRTLRRSPRISRPTAKVAEIRDQKADKKRGEGEDEVEEESTALQKTDKKEILKKSEKDTNSKVSKVKPKGKVRWTGSRTRGRWKYSSNDESEGSGSEKSSAASEEEEEKESEEAILADDDEPCKKCGLPNHPELILLCDSCDSGYHTACLRPPLMIIPDGEWFCPPCQHKLLCEKLEEQLQDLDVALKKKERAERRKERLVYVGISIENIIPPQEPDFSEDQEEKKKDSKKSKANLLERRSTRTRKCISYRFDEFDEAIDEAIEDDIKEADGGGVGRGKDISTITGHRGKDISTILDEERKENKRPQRAAAARRKKRRRLNDLDSDSNLDEEESEDEFKISDGSQDEFVVSDENPDESEEDPPSNDDSDTDFCSRRLRRHPSRPMRQSRRLRRKTPKKKYSDDDEEEESEENSRDSESDFSDDFSDDFVETRRRRSRRNQKRQINYKEDSESDGSQKSLRRGKEIRRVHKRRLSSSESEESYLSKNSEDDELAKESKRSVRKRGRSTDEYSEADEEEEEEEGKPSRKRLHRIETDEEESCDNAHGDANQPARDSQPRVLPSEQESTKKPYRIESDEEEDFENVGKVGSPLDYSLVDLPSTNGQSPGKAIENLIGKPTEKSQTPKDNSTASASLASNGTSGGQEAGAPEEEEDELLRVTDLVDYVCNSEQL

Chains of the proteins cited; added tags and fusions are not shown.
UniProt Q13263: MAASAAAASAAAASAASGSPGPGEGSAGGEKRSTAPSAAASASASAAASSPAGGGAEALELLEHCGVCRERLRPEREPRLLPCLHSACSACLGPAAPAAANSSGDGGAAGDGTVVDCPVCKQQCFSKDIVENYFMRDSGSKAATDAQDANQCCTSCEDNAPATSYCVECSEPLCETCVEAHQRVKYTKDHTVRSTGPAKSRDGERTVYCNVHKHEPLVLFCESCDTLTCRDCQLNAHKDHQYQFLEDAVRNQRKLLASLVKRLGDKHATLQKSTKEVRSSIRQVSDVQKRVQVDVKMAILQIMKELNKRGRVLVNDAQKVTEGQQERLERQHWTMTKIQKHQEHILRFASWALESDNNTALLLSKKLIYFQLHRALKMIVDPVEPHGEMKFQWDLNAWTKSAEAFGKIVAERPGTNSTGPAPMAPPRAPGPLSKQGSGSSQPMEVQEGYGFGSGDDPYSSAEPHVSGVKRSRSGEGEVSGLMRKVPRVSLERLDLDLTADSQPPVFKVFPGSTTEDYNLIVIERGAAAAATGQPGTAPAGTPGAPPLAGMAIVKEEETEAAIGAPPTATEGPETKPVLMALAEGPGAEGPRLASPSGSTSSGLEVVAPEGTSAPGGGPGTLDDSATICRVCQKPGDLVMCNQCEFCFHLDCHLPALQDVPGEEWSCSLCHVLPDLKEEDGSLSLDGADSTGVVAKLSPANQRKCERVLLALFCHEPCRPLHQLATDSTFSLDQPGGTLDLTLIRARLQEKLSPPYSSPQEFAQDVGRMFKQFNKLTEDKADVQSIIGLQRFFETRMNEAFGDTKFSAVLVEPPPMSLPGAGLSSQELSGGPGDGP
UniProt Q9NR30: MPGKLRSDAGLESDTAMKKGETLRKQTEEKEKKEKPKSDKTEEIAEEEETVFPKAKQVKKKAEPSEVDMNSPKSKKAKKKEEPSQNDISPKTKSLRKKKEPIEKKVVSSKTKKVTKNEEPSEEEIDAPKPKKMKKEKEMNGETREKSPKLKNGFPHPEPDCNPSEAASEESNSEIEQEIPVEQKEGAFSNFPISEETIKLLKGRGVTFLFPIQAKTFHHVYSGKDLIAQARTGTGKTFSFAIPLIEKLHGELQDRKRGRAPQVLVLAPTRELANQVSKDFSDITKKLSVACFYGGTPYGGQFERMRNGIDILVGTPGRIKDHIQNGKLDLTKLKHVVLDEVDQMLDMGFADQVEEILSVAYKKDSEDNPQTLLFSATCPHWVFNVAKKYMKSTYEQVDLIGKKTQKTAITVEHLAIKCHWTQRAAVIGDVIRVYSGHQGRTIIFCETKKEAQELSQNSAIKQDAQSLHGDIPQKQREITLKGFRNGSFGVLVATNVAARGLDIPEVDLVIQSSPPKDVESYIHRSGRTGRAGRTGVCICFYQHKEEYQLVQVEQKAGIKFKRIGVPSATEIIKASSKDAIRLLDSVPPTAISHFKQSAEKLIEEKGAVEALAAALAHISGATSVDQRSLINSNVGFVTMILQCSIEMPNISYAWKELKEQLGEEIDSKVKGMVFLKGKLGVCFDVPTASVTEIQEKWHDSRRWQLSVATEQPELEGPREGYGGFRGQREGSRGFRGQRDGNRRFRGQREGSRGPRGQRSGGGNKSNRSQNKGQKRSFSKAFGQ
UniProt Q16531: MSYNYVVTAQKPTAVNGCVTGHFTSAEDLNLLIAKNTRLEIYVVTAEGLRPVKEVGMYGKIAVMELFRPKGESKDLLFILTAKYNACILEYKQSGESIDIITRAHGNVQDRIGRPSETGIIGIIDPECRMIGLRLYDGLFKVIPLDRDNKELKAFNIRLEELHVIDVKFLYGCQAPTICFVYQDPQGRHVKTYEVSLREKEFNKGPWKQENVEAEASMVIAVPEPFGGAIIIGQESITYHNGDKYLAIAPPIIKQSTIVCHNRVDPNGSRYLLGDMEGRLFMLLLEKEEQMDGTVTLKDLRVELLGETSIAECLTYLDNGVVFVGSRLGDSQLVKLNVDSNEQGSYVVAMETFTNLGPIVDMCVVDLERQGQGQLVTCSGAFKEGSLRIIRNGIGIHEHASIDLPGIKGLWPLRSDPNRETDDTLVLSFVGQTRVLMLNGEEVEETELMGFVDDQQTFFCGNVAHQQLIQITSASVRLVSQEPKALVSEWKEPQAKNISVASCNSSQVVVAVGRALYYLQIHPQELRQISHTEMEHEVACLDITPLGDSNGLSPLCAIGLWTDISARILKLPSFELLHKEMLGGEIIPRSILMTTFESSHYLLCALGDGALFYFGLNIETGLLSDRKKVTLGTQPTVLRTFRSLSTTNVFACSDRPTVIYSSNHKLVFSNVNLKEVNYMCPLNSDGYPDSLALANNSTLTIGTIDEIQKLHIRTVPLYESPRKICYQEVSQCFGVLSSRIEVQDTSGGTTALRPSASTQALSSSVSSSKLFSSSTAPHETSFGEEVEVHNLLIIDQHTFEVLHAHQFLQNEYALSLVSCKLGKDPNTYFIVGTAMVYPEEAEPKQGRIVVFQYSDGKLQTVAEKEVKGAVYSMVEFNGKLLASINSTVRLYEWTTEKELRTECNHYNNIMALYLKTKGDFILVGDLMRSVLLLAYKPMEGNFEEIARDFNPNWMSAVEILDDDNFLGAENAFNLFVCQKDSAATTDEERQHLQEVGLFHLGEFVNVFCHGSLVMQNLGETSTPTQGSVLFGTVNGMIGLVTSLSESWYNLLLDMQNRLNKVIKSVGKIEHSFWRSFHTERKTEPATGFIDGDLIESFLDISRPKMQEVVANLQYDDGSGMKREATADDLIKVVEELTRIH
UniProt Q9Y265: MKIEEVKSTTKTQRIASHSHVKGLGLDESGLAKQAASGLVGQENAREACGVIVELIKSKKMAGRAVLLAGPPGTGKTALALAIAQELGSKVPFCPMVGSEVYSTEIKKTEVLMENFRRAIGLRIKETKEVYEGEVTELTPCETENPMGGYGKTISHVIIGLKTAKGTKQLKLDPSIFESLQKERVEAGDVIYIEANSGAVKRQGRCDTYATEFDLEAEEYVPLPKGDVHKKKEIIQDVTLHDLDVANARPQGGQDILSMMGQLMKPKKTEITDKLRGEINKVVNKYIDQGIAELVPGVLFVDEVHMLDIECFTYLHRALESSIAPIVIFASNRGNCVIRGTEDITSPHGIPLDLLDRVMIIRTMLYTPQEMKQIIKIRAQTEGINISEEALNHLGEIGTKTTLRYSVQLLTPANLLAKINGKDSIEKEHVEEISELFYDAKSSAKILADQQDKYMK
UniProt O60264: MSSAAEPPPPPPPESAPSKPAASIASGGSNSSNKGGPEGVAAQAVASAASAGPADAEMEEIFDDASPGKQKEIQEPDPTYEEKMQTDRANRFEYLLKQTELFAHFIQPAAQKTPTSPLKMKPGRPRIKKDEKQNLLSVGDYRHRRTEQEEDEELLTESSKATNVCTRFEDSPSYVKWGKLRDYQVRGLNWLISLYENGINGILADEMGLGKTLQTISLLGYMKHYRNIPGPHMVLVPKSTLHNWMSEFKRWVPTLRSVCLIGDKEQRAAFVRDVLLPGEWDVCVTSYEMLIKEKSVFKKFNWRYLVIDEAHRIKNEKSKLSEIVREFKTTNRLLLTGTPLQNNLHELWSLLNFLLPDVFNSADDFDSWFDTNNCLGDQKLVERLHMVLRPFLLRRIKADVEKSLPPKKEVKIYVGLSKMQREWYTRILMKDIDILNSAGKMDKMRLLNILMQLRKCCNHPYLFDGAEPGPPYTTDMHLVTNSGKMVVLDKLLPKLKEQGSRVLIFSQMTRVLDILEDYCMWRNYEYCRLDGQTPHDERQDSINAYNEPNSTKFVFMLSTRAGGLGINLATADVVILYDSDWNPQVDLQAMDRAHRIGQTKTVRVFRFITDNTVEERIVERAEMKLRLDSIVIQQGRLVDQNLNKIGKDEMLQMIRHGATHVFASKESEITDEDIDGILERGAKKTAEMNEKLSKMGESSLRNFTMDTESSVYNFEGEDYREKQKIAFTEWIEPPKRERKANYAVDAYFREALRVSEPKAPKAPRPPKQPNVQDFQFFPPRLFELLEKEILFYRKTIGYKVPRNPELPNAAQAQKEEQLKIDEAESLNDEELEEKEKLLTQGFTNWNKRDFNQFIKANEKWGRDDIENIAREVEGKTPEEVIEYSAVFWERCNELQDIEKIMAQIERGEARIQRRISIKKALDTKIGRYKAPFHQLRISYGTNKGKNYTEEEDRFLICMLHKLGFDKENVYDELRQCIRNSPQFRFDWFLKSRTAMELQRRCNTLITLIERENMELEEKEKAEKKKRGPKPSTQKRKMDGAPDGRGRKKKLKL

Molecular target: FLAG-HA-tagged KAP1 (human) (UniProt Q13263)
Test: affinity purification with mass spectrometry; two-step affinity purification (anti-FLAG agarose, FLAG peptide elution; then anti-HA agarose, HA peptide elution, native conditions) of FLAG-HA-KAP1 from Dignam nuclear extracts and benzonase-treated chromatin-soluble extracts of K562 cells; mock from K562 not expressing the construct; tandem MS

binding	Molecule
binds	DDX21 (from UniProt Q9NR30 1-783)
binds	DNA-damage binding protein 1 (from UniProt Q16531 1-1140)
binds	RuvB-like protein 1 (from UniProt Q9Y265 1-456)
binds	SMARCA5 (from UniProt O60264 1-1052)
binds	B1
